At least one compound was matched to its structure with a doubt left.
System: SKOV3 cells
Assay: Sulforhodamine B (SRB) assay, single agent
Format: cell-based
Conditions: 24 hours exposure, SRB assay on day 4
Experimental: SKOV3 cells were purchased from American Type Culture Collection (ATCC). They were cultured at 37° C. and 5% CO2 in Gibco™ RMPI Medium 1640+GlutaMAX™-I (Life Technologies; 61870-010) with 10% Gibco™ FBS (Life Technologies; 10270-106) and 1% Gibco™ Penicillin-Streptomycin (Life Technologies; Ser. No. 15/140,122), known as complete medium, in a cell culture flask. Cisplatin was purchased from TEVA UK Limited (PL 00289/1146). Fluvastatin and Sulforaphane were both purchased from Merck Millipore Corporation (Catalogue numbers 344096 and 574215 respectively). (S)-NUC-1031 was provided by NuCana® Ltd.
SKOV3 cells were plated at 250 cells in 200 μl per well in the middle 60 wells of Costar® 3596 96-well plates, with the outer 36 wells filled with 200 μl PBS each. The cells were allowed to grow in complete medium for 48 hours before different drug compounds were added in. For single agent, cisplatin, (S)-NUC-1031, fluvastatin and sulforaphane in complete medium at 10 different concentrations were added into the middle 60 wells (Day 0). Each concentration was loaded in sextuplicate. […]
After adding the TCA solution, the plates were washed under running tap water 10 times and were allowed to dry in the oven at 50° C. […] The plates were read on Biohit BP800 Microplate Reader (Biohit Healthcare) and the absorbance was measured at 540 nm. […]

## CC(C)n1c(/C=C/C(O)CC(O)CC(=O)O)c(-c2ccc(F)cc2)c2ccccc21 (stereo not shown) [fluvastatin, Fluvastatin]
  IC50: could not be calculated due to unobservable inhibitory effects

Source: patent US20190022117A1, “COMBINATION THERAPY” (NuCana plc, priority 2015, published 2019)
